# PubChem BioAssay AID720505 | Drosophila RNAi Screening Center | 2013
# Aim: 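Genes needed for store-operated calcium entry in fly cells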 (primary screen)
# Cell system: Drosophila S2R+ cells
# Knock-down reagent: long dsRNA against Drosophila genes
# Challenge: thapsigargin (2 µM) in calcium-free buffer to empty internal stores, then 2 mM calcium added back
# Detection: 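Fluo-4 signal in 384-well plates read on a FLIPR after thapsigargin (2 µM, calcium-free) store depletion and 2 mM calcium add-back; unnormalised mean endpoint per well; screen run twice, selected wells retested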
# Scale: calcium signal and retest calcium signal: higher = more calcium entry after store depletion
# Active means: 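Knock-downs counted as hits when calcium entry dropped relative to STIM1 positive and Rho1 negative controls present on each plate; roughly 1500 genes called, with reductions of differing size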
# Calls: active = called as lowering calcium entry; inactive = not called
# The screen tested about 20,000 reagents; this is a random part of those that have a named target and a result. In the full data, about 2,100 (10%) are marked active. 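Raw plate signals without normalisation; calls rest on control-based scores that were not deposited; replicate 2 separates called from uncalled poorly.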 Names joined by + are all predicted targets of the reagent. The record does not give: the amount of reagent, the time to read-out.
gene knocked down,dsRNA,"calcium signal, replicate 1","calcium signal, replicate 2","retest calcium signal, replicate 1","retest calcium signal, replicate 2",Call
HPS1 (Hermansky-Pudlak Syndrome 1),DRSC06195,168,148,,,inactive
CG1662,DRSC19754,117,122,,,inactive
BaraA1 + BaraA2,DRSC05417,119,134,,,inactive
sqa (spaghetti-squash activator),DRSC06693,129,134,,,inactive
sqa (spaghetti-squash activator),DRSC21635,204,123,,,inactive
CG32213 + CG12519 + 825-Oak + 1 more,DRSC09615,3252,120,,,active
Best3 (Bestrophin 3),DRSC09880,76.6,131,,,inactive
CG7196 (retired record),DRSC01000,119,107,,,inactive
CG7196 (retired record),DRSC03023,74.3,67.9,,,active
asrij,DRSC04175,167,228,,,inactive
Rbbp5 (Retinoblastoma binding protein 5),DRSC11778,75.7,136,,,inactive
CG42237,DRSC19891,72.1,110,,,active
sinu (sinuous),DRSC09752,127,164,,,inactive
nAChRbeta1 (nicotinic Acetylcholine Receptor beta1),DRSC08728,62.3,107,,,active
l(1)sc (lethal of scute),DRSC18789,62.2,108,,,active
CG11380,DRSC18632,88.2,130,,,inactive
CG11380,DRSC23223,98.5,131,,,inactive
glob2 (globin 2),DRSC12560,122,101,,,inactive
GstE3 (Glutathione S transferase E3),DRSC06673,196,163,,,inactive
CG17029,DRSC10240,98.6,157,,,inactive
CG7849,DRSC04895,121,157,,,inactive
Sk1 (Sphingosine kinase 1),DRSC19774,69.6,79.8,,,inactive
Gr10a (Gustatory receptor 10a),DRSC22792,78,104,,,inactive
Dlic (Dynein light intermediate chain),DRSC19824,124,78.8,,,inactive
CG3592,DRSC18315,139,206,,,inactive
CG7381,DRSC16238,97.6,163,,,inactive
CG31097,DRSC14666,273,98.5,,,inactive
Srp54 (Splicing regulatory protein 54),DRSC03442,84.7,78.4,,,inactive
CG14763,DRSC06497,92.1,109,,,inactive
Ir84a (Ionotropic receptor 84a),DRSC12510,132,122,,,inactive
baf (barrier to autointegration factor),DRSC03051,140,146,,,inactive
PGRP-LA (Peptidoglycan recognition protein LA),DRSC10327,103,107,,,inactive
PGRP-LA (Peptidoglycan recognition protein LA),DRSC10414,81.6,88.8,,,inactive
CG4950,DRSC10463,94.3,185,,,inactive
Arp5 (Actin-related protein 5),DRSC16350,178,289,,,inactive
Nmt (N-myristoyl transferase),DRSC11236,92,84.4,,,inactive
CG15387,DRSC00401,133,138,,,inactive
CG15209,DRSC19655,97.6,118,,,inactive
AANATL7 (Arylalkylamine N-acetyltransferase-like 7),DRSC18616,96,138,,,inactive
Adh + Adhr,DRSC01862,79.3,168,,,inactive
Adh + Adhr,DRSC01863,96,124,,,inactive
CG14591,DRSC04868,152,204,,,inactive
CG5611,DRSC15843,99.6,84.6,,,inactive
CG32079,DRSC22636,116,209,,,inactive
AGO1 (Argonaute-1),DRSC05912,202,235,,,inactive
CG1688,DRSC05934,165,193,,,inactive
CG1688,DRSC23207,114,145,,,inactive
robl62A,DRSC08153,111,87,,,inactive
HemK2 + Snapin,DRSC00736,84.5,286,,,inactive
HemK2 + Snapin,DRSC00737,206,105,,,inactive
Acph-1 (Acid phosphatase 1),DRSC14103,157,150,,,inactive
chp (chaoptin),DRSC16925,88.5,96.8,,,inactive
eIF3k (eukaryotic translation initiation factor 3 subunit k),DRSC04056,68,96.5,,,active
Rad1 + Sws1,DRSC00778,156,192,,,inactive
"Smyd4-1 (SET and MYND domain containing, class 4, member 1)",DRSC06785,159,99.4,,,inactive
Cyp6a8 (Cytochrome P450 6a8),DRSC07384,187,131,,,inactive
ProtB (Protamine B),DRSC03373,81.4,139,,,inactive
CG14562,DRSC11723,109,233,,,inactive
CG11786,DRSC14389,127,124,,,inactive
sni (sniffer),DRSC17770,105,74.6,,,inactive
Rbf2 (Retinoblastoma-family protein 2),DRSC16816,121,209,,,inactive
Cpsf73 (Cleavage and polyadenylation specificity factor 73),DRSC16291,227,166,,,inactive
CG32971,DRSC01372,148,82.1,,,inactive
Dh31 (Diuretic hormone 31),DRSC02196,198,166,,,inactive
qkr54B (quaking related 54B),DRSC07670,175,149,,,inactive
"Pka-C3 (Protein kinase, cAMP-dependent, catalytic subunit 3)",DRSC09402,,,,,active
"Pka-C3 (Protein kinase, cAMP-dependent, catalytic subunit 3)",DRSC11254,123,148,,,inactive
ORMDL (Orosomucoid 1-like),DRSC11737,94.1,199,,,inactive
bab1 (bric a brac 1),DRSC08379,76.4,89.8,133,109,inactive
bab1 (bric a brac 1),DRSC08709,64,62.7,,,active
bab1 (bric a brac 1),DRSC21882,82.6,226,,,inactive
Galphaq (G protein alpha subunit q),DRSC07432,131,150,,,inactive
Zw (Zwischenferment),DRSC20303,61.6,114,,,active
CG16989,DRSC18535,84.2,139,,,inactive
Cyp6a9 (Cytochrome P450 6a9),DRSC07385,141,194,,,inactive
RpL32 (Ribosomal protein L32),DRSC16835,4973,103,97.2,99,active
Bfc (Booster for Crq),DRSC08623,76.1,104,,,inactive
CG14877,DRSC15001,141,242,,,inactive
Oxp (Oxpecker),DRSC06712,133,155,,,inactive
Cep97 (Centrosomal protein 97kDa),DRSC00637,129,217,,,inactive
CG13857,DRSC14707,192,145,,,inactive
Klp98A (Kinesin-like protein at 98A),DRSC16724,66.7,67.1,,,active
Klp98A (Kinesin-like protein at 98A),DRSC21834,57.4,179,,,active
CG34334,DRSC20643,160,102,,,inactive
Mipp2 (Multiple inositol polyphosphate phosphatase 2),DRSC18682,107,105,,,inactive
CG4956,DRSC15683,212,119,,,inactive
Dg (Dystroglycan),DRSC06718,113,145,,,inactive
CG12851,DRSC04131,59.8,119,,,active
CG7133,DRSC11798,112,132,,,inactive
CG31221,DRSC14335,192,158,,,inactive
CG31221,DRSC16217,151,134,,,inactive
Rcd2 (Reduction in Cnn dots 2),DRSC11756,85.6,142,,,inactive
CG9747,DRSC16554,86.2,126,8135,191,inactive
CG15546,DRSC15084,149,120,,,inactive
CG15546,DRSC22831,116,89.5,,,inactive
IntS2 (Integrator 2),DRSC20094,153,108,,,inactive
Gss1 + Gss2,DRSC20008,84.8,125,,,inactive
Gss1 + Gss2,DRSC21539,270,84.4,,,inactive
Chrac-16 (Chromatin accessibility complex 16kD protein),DRSC20343,81.1,83.8,,,inactive
Gld (Glucose dehydrogenase),DRSC12595,115,123,,,inactive
CG10737,DRSC05999,159,108,,,inactive
Vhl (von Hippel-Lindau),DRSC07716,76,122,,,inactive
CG11791,DRSC14391,142,188,,,inactive
dre4,DRSC08714,92.9,113,,,inactive
Rab23,DRSC12305,125,188,,,inactive
Hel25E (Helicase at 25E),DRSC03342,116,146,,,inactive

Hits (from the list above):
gene knocked down,dsRNA,"calcium signal, replicate 1","calcium signal, replicate 2","retest calcium signal, replicate 1","retest calcium signal, replicate 2",Call
CG32213 + CG12519 + 825-Oak + 1 more,DRSC09615,3252,120,,,active
CG7196 (retired record),DRSC03023,74.3,67.9,,,active
CG42237,DRSC19891,72.1,110,,,active
nAChRbeta1 (nicotinic Acetylcholine Receptor beta1),DRSC08728,62.3,107,,,active
l(1)sc (lethal of scute),DRSC18789,62.2,108,,,active
eIF3k (eukaryotic translation initiation factor 3 subunit k),DRSC04056,68,96.5,,,active
"Pka-C3 (Protein kinase, cAMP-dependent, catalytic subunit 3)",DRSC09402,,,,,active
bab1 (bric a brac 1),DRSC08709,64,62.7,,,active
Zw (Zwischenferment),DRSC20303,61.6,114,,,active
RpL32 (Ribosomal protein L32),DRSC16835,4973,103,97.2,99,active
Klp98A (Kinesin-like protein at 98A),DRSC16724,66.7,67.1,,,active
Klp98A (Kinesin-like protein at 98A),DRSC21834,57.4,179,,,active
CG12851,DRSC04131,59.8,119,,,active
